Read-outs that look alike come from different tables or passages of the source.

For experiment [1], the system named is variety of human cell lines, including leukemia cells. The note with it: read-out: median IC50, growth inhibition; cited from earlier work.
The test system of another experiment is primary leukemia cells. As to the kind of experiment: cells. The note with it: Homo sapiens. The method, then:
Primary leukemia cells for in vitro studies were isolated from BM or PB obtained from AML or ALL patients enrolled on a separate University of Maryland, Baltimore, IRB-approved protocol for tissue collection and not treated on this clinical study. The cells were isolated by gradient centrifugation using LSM (Mediatech) according to the manufacturer’s protocol. Cells were used either fresh or after viable freezing (FBS/10 % DMSO). Primary leukemia cells were cultured in RPMI 1640 (Invitrogen, Grand Island, NY, USA) supplemented with 15 % heat-inactivated FBS (HyClone Laboratories Inc., Red Bank, NJ, USA) and 200 mM L-Glutamine (Invitrogen). Leukemia cell lines HL-60 (AML), MOLT-4 (T cell ALL), and K562 (chronic myelogenous leukemia [CML] in erythroid blast transformation) were purchased from American Type Culture Collection (ATCC, Manassas, VA, USA) and cultured in RPMI 1640 (Invitrogen) supplemented with 10 % heat-inactivated FBS (HyClone Laboratories Inc.) and 200 mM L-Glutamine (Invitrogen).

As usually defined, the IC50 is the concentration at which inhibition is half-maximal. Turning to `CCc1cnn2c(NCc3ccc[n+]([O-])c3)cc(N3CCCC[C@H]3CCO)nc12` [Dinaciclib], the IC50 is 11 nM in experiment [1]; 223 nM with primary leukemia cells (24 h, read-out: IC50 (WST-1), ALL 03, 24 h); 12.6 nM with primary leukemia cells (24 h, read-out: IC50 (WST-1), AML 02, 24 h); 13.5 nM in the experiment with primary leukemia cells (24 h, read-out: IC50 (WST-1), AML 04, 24 h); 10.2 nM with primary leukemia cells (24 h, read-out: IC50 (WST-1), AML 05, 24 h); 11.3 nM in the experiment on primary leukemia cells (24 h, read-out: IC50 (WST-1), AML06, 24 h). Also, the IC50 in the experiment with primary leukemia cells (24 h, read-out: IC50 (WST-1), AML 08, 24 h) was 9.5 nM; in the experiment with primary leukemia cells (24 h, read-out: IC50 (WST-1), primary AML samples, 24 h, range stated as that observed for leukemia cell lines), 8 to 17 nM; in the experiment on primary leukemia cells (AML01, 24 h, read-out: IC50 (WST-1), AML 01, 24 h), 8.84 nM.

(Values after article PMC3784060 (Cancer Chemotherapy and Pharmacology, 2013).)
